The text below walks through data of PubChem BioAssay AID2685 (National Center for Advancing Translational Sciences (NCATS), 2010).

The nature of this test: qHTS Assay for Lipid Storage Modulators in Drosophila S3 Cells.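 On cell number change: cells counted by Cell Tracker Red CMTPX staining in the red channel.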 Conditions: BODIPY lipid droplet fluorescence, 18-24 h; for cell number change: measured here: cell count max response, cells fed with added oleic acid. The procedure, abridged:
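Drosophila S3 cells loaded with oleic acid (400 uM, as added) and compounds at several concentrations; lipid droplets imaged by 488-nm laser-scanning cytometry, 500–530 nm intensity and object ratio to cell channel. Percent activity normalized to 20 uM Triacsin C.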
For orientation: Quantitative high-throughput screening tests each substance at several concentrations.

The mark [1] stands for this setting: measured here: lipid fluorescence (Fed channel) AC50, cells fed with added oleic acid.
The mark [2] stands for this setting: measured here: cell number channel AC50, cells fed with added oleic acid.

The other results are listed elsewhere or left out. These are further read-outs of the screen, such as a control signal, another cell line or another target. No call is given for them. The list favours compounds with an active or inconclusive main result. Words in brackets tell the shape of the fitted curve; partial curves, single points and poor fits give uncertain potencies.

For orientation: AC50 means the midpoint of the concentration-response curve, whichever way the signal moves. For `CCC(C)Nc1nc2c(c(=O)[nH]c(=O)n2C)n1CCOc1ccccc1` (configuration not stated), the cell number change was 1.8%. Also, the concentration at half-maximal activity (AC50) under setting [1] is 4.61 µM [falling, full curve].

Take `CCOC(=O)CCc1c(C)nc2cc(-c3ccc(Cl)cc3)[nH]n2c1=O`: the cell number change was determined as 13.2%. The AC50 under setting [1] is 0.00461 µM [rising, full curve, poor fit].

For the compound `CN(C)S(=O)(=O)N1CCN(S(=O)(=O)c2ccc3ccccc3c2)CC1`, the cell number change stood at 1.04%. In addition, the concentration at half-maximal activity (AC50) under setting [1] is 0.517 µM [rising, full curve, poor fit].

Take `Cc1ccc(NC(=O)CN2C(=O)NC3(CCc4ccccc43)C2=O)cc1Cl` (configuration not stated): the AC50 under setting [1] is 1.3 µM [falling, full curve, poor fit].

For `Cc1nn(C(C)(C)C)c(NC(=O)c2ccc(Cl)cc2)c1Br`, the cell number change is 23.4%.

Regarding `O=C(Nc1ccc(C(O)(C(F)(F)F)C(F)(F)F)cc1)c1ccc(Cl)c([N+](=O)[O-])c1`, the cell number change was -31.8%. Moreover, the concentration at half-maximal activity (AC50) under setting [2] is 29.1 µM [falling, single point]. The AC50 under setting [1] was 29.1 µM [falling, single point].

For `O=C(Cn1nnc(-c2ccc([N+](=O)[O-])cc2)n1)NNC(=O)c1ccccc1`, the cell number change came to 22.6%. Besides, under setting [1], the AC50 was 0.58 µM [falling, single point].

As to `O=C(OCC#CCSc1nnc(-c2ccc(Br)cc2)o1)c1cccs1`, the cell number change stood at 39.7%. Besides, the AC50 under setting [2] is 29.1 µM [rising, single point]. Further, under setting [1], the AC50 was 0.92 µM [rising, full curve, poor fit].

As to `Cc1nnc(SCc2nc3ccccc3s2)n1-c1ccccc1`, the cell number change was 22.3%. Besides, under setting [1], the AC50 was 2.59 µM [rising, full curve].

As to `Cc1c(Cl)c([N+](=O)[O-])nn1Cc1ccc(C(=O)NN)o1`, the cell number change came out at 25.5%. Moreover, the concentration at half-maximal activity (AC50) under setting [2] was 0.00651 µM [rising, full curve, poor fit]. Also, under setting [1], the AC50 was 5.8 µM [rising, partial curve].

On to `O=C(Nc1ccc(N2CCCC2)cc1)c1ccc2ccccc2c1`, for which the cell number change was determined as 20.4%. Also, under setting [1], the AC50 was 2.31 µM [rising, full curve].

As for `Cc1ccccc1NC(=S)NCCc1ccccc1`, the cell number change turned out to be 34.7%. The AC50 under setting [2] is 3.26 µM [rising, single point].

In the case of `COC(=O)c1ccc(C)c(NC(=O)COC(=O)C2CC3CCCC(C2)C3=O)c1` (configuration not stated), the cell number change came to 131%. Further, under setting [2], the half-maximal activity concentration (AC50) was 18.4 µM [rising, partial curve].

Consider `O=C(CN1C(=O)c2ccccc2C1=O)Nc1cc([N+](=O)[O-])ccc1O`, for which the cell number change is -10.6%.

For `COc1ccc(CNC(=O)C2CCN(C(=O)Cc3ccccc3)CC2)cc1`, the cell number change was -32.5%. Under setting [2], the concentration at half-maximal activity (AC50) was 0.13 µM [falling, full curve, poor fit].

Turning to `O=C(CNS(=O)(=O)c1cccc(C(F)(F)F)c1)Nc1ccccc1F`, the cell number change was -66.4%. Also, the concentration at half-maximal activity (AC50) under setting [2] was 29.1 µM [falling, single point].
